Measurements taken from article doi:10.1101/2020.01.03.892703.
These are yes or no findings as the source states them, for the method shown. Binding seen in cells or lysates may run through a third protein. Here binding means that the protein was enriched with, or labelled near, the bait; the list need not be complete. Where a sequence is shown, tags or fusion partners need not be part of it.

T1: biotin-tagged XPF (mouse (endogenous knock-in in MEFs)) (UniProt Q9QZD4)
T1 sequence (chain, biotin on the 15 aa tag (by the BirA ligase in vivo)): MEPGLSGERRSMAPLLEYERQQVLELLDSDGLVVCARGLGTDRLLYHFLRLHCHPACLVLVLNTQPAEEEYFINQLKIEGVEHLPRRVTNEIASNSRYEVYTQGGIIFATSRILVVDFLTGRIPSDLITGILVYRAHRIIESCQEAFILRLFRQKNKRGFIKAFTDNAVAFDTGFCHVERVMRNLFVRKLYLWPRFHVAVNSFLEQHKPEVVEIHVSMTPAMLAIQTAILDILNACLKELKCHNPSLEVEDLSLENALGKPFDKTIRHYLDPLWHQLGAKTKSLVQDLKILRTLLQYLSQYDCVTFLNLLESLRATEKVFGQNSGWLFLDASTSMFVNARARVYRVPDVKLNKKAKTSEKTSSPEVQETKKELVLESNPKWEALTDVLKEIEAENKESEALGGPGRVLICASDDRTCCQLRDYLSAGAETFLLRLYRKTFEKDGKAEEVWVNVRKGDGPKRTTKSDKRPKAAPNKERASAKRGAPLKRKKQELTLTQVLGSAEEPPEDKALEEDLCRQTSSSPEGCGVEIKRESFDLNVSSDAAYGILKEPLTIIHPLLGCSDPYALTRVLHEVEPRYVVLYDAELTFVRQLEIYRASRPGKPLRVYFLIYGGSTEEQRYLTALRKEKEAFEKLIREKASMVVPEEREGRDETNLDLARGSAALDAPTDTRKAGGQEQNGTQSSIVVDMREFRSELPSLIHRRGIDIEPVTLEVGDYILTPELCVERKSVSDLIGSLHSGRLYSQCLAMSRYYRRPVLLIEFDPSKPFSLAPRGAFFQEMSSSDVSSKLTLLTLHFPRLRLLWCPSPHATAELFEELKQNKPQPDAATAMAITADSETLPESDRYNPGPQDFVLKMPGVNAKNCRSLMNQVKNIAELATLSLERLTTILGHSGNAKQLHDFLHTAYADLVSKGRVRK

B1: NOP58 (protein, UniProt Q6DFW4 1-536)
chain: MLVLFETSVGYAIFKVLNEKKLQEVDSLWKEFETPEKANKIVKLKHFEKFQDTAEALAAFTALMEGKINKQLKKVLKKIVKEAHEPLAVADAKLGGVIKEKLNLSCIHSPVVNELMRGIRSQMDGLIPGVEPREMAAMCLGLAHSLSRYRLKFSADKVDTMIVQAISLLDDLDKELNNYIMRCREWYGWHFPELGKIISDNLTYCKCLQKVGDRKNYASASLSEFLSEEVEAEVKAAAEISMGTEVSEEDICNILHLCTQVIEISEYRTQLYEYLQNRMMAIAPNVTVMVGELVGARLIAHAGSLLNLAKHAASTVQILGAEKALFRALKSRRDTPKYGLIYHASLVGQSSPKHKGKISRMLAAKTVLAIRYDAFGEDSSSAMGIENRAKLEARLRILEDRGIRKISGTGKALAKAEKYEHKSEVKTYDPSGDSTLPTCSKKRKIEEVDKEDEITEKKAKKAKIKIKAEVEEEMEEEEAEEEQVVEEEPTVKKKKKKDKKKHIKEEPLSEEEPCTSTAVPSPEKKKKKKKKKDAED
B2: NUP153 (protein, UniProt E9Q3G8 1-1462)
chain: MASEAGGIGGGGGGGKIRTRRCHQGPVKPYQQGRPQHQGILSRVTESVKNIVPGWLQRYFNKSENACSCSPDADEVPPWPENREDEHAIYADENTNTDDGRITPDPAGSNTEEPSTTSTASNYPDVLTRPSLHRSHLNFSVLESPALHCQPSTSSAFPIGSSGFSLVKEIKDSTSQHDDDNISTTSGFSSRASEKDIAVSKNTSLPPLWSPEAERSHSLSQHTAISSKKPAFNLSAFGTLSTSLGNSSILKTSQLGDSPFYPGKTTYGGAAAAVRQNKVRSTPYQAPVRRQMKAKQLNAQSYGVTSSTARRILQSLEKMSSPLADAKRIPSAVSSPLNSPLDRSGIDNTVFQAKKEKVDSQYPPVQRLMTPKPVSIATNRTVYFKPSLTPSGDLRKTNQRIDKKNSTVDEKSISRQNREQESGFSYPNFSIPAANGLSSGVGGGGGKMRRERTHFVAPKPPENEEVEAPLLPQISLPISSSSLPTFSFSSPVTSASPSPVSSSQPLPNKVQMTSLGSTGSPVFTFSSPIVKSTQAAVLPPASIGFTFSVPLAKTEFSGSNSSSETVLSSSAQDITAVNSSSYKKRSAPCEDPFTPAKILREGSVLDILKTPGFASPKVDSPALQPTTTSSIVYTRPAISTFSSSGIEYGESLKAGSSWQCDTCLLQNKVTDNKCIACQAAKLPLKETAKQTGTGTPSKSDKPASTSGTGFGDKFKPAIGTWDCDTCLVQNKPEAVKCVACETPKPGTGVKRALTLTVASESPVTASSSTTVTTGTLGFGDKFKRPVGSWECPVCCVCNKAEDNRCVSCTSEKPGLVSASSSSPAPVSLSSGGCLGLDKFKKPEGSWDCEVCLVQNKADSAKCIACESAKPGTKSEFKGFGTSSSLNPAPSAFKFGIPSSSSGLSQTLTSTGNFKFGDQGGFKLGTSSDSGSTNTMNTNFKFSKPTGDFKFGVLSDSKPEEVKNDNKNDNFQFGSSSGLTNPASSAPFQFGVSTLGQQEKKEELPKSSPAGFSFGAGVNNPPNAAIDTTATSENKSGFNFGTLDTKSVSVTPFTYKTTEAKKEDAPATKGGFTFGKVGSSSLPSSSMFVLGRTEEKQQEPVTSTSLVFGKKADSEEPKCQPVFSFGNSEQTKDESSKPTFSFSVAKPSGKESEQLAKATFAFGNQTNTTTDQGAAKPVFSFLNSSSSSSSAPATSSSGGIFGSSTSSSNPPVAAFVFGQASNPVSSSAFGNAAESSTSQSLLFPQESEPATTSSTAPAASPFVFGTGASSNSVSSGFTFGATTTSSSSGSSFVFGTGHSAPSASPAFGANQTPTFGQSQGASQPNPPSFGSISSSTALFSAGSQPVPPPIFGTVSSSSQPPVFGQQPSQSAFGSGTANASSVFQFGSSTTNFNFTNNNPSGVFTFGASPSTPAASAQPSGSGVFSFSQSPASFTVGSNGKNMFSSSGTSVSGRKIKTAVRRKK
B3: WDR36 (protein, UniProt Q3TAQ9 1-899)
chain: MAEMESAVEGRTASVLFAGFRALGLFSNEVPHVVRYSALKRRFYVTTCVGKSFHTYDVQKLSLVAVSNSVPQDICCMAADGRLVFAAYGNVFSAFARNKEIVHTFKGHKAEIHLLQPFGDHVISVDTDSVLIIWHIYSEEEYLQLTFDKSVFKISTILHPSTYLNKVLLGSEQGSLQLWNIKSNKLLYTFPGWKVGVTALQQAPAVDVVAIGLVSGQVVIHNIKYDETLMKFHQDWGPITSISFRTDGHPIMAAGSPCGHIGLWDLEDKKLINQMRNAHSTAISGLTFLHREPLLVTNGADNALRIWIFDGPAGEGRLLRFRMGHSASLTKIRYYGQNGQQILSASQDGTLQSFSTVHEKFNKSLGHGLVNKKIVKRKGLQNTMSVRLPPITQFAAEEARQSDWDGIIACHQGKRSCSTWNYQRSTIGAYFLKPRGVKTNSNLTATAVDITSCGNFAIIGLSSGAVDVYNMQSGIHRGNFGDDKAHTGSVRGVAVDGLNQLVVTAGSERLLKFWNFKSKVLIHSLGLDSSPNMMLLHRDSGILGLAMDDFSIAVLDIETRKIVREFSGHHGQINDMTFSPDGRWLISAAMDCSVRTWDLPSGCLIDCFLLDSAPLNVTMSPTGDFLATSHVDHLGIYLWSNISLYSVVSLRPLPPDYVPSIVMLPGTCQTQGMEDLEEKTEPSDEMIEYESPEQLSEQLVTLSLLPESRWKNLLNLDVIKKKNKPKEPPKVPQSAPFFIPTVPGLVPRFAVPEPSSDPQQSKVVNLGILAQKSNFYLKLEEGLLNNQYEAALNLLKELGPSGIETELRNLSPDDGGSVEVMRSFLSMIGMMLDRKRDFELAQAYLALFLKLHLRTLPSEPALLEELVKLSSQVEKDWTHLQSLFNQSMCVLNYIKSAFL
B4: UTP15 (protein, UniProt Q8C7V3 1-528)
chain: MAGYKPVAIQTYPVLGEKITQDTLYWNNYKTPVQIKEFGAVSKVDFSPQLPYNYAVTASSRIHIYGRYSQEPVKTFSRFKDTAYCATFRQDGQLLVAGSEDGVVQLFDINGRAPLRQFEGHTKAVHTVDFTADNYHVVSGADDYTVKLWDIPNSKEILTFKEHSDYVRCGCASKLNPDLFVTGSYDHTVKIFDARTNKNVLCVEHGQPVESVLLFPSGGLLVSAGGRYVKVWDMLKGGQLLVSLKNHHKTVTCLCLSSSGQRLLSGSLDRKVKVYSTTSYKVVHSFDYAASILSLALSHQDETIVVGMTNGILSVKHRKSEAKKTSLPRRRRPAYRTFIKGKNYLKQRDDIMVSRPAKKHLEGYDKDLKSFRVSQALDRVLEPKCVIRTPEVTVSIIKELTRRGVLANALAGRDEKEVTRVLNFLIRNLSQPRFAPVLINAAEIIIDIYLPVIGQSSVVDKKFIVLQELVEKEIDYQRELLETLGMMDMLFATMTRNDSDPVPEHVPAELPEEKTESPTQPSDTDKNS
B5: WDR43 (protein, UniProt Q6ZQL4 1-677)
chain: MAAGGGGSYDPLAPAGVPCAFSPDSQAYFALASSDGQLRVWETANNRLHQEYVPSAHLSGTCTCLAWAPARLQAKESHQRKKRKSEVTGTKDQADLLALGTAVGSILLYSTVRGELHSKLTSGGHENRVNCIQWHQDNDCLYSCSDDKYIVEWSTQTCKVKCKWKGDNSSVSSLCISPDGKMLLSAGRTIKLWVLETKEVYRHFTGHATPVSSLRFTTIRPNESQPSDGITGLYFLSGAVHDRLLNVWQVRSENKEKSAVMSFTVTDEPVYVDLTLSENKEEPVKLAVVCRDGQVHLFEHILNGHCKKPLTSNCTIQIATPGKGKKVTPKPIPILAASFCLDKMSLLLVYGNWFQPTIERVALNSKDTHICLERDISNCWAPTVETAITKVKTPVMNSEAKVLVPGIPGHHAPIKLPPAQPKEAENKRKLGSTEATIEERLGAMDLDRKGRKDDLQTNSFAVLLTQGLESNDFEILNKVLQTKNVNLIKRTVLRIPLRVVIPLLQELTKRLQGHPNSAALMIQWLKCVLTIHASYLSTLPDLVEQLGTLYQLMESRVKTFQKLSNLHGKLILLVTQVTASEKSKKMTSPGQKAKLVYEEESSEEESDDEVPEKDSDDNWDEDEDKDSEKDEGVDEDNEEEDEDMEDKEENEEDREVSSEKELNGDSDLDPENESEEE
B6: GNL3 (protein, UniProt Q8CI11 1-538)
chain: MKRPKLKKASKRMTCHKRYKIQKKVREHHRKLRKEAKKRGHKKPRKDPGVPNSAPFKEALLREAELRKQQLEELKQQQKLDRQKEQERKRKLEVSPGDEQSNVETREESDEPKRKKAKAGKQNPKKLHCQELKKVIEASDIVLEVLDARDPLGCRCPQIEEAVIQSGSKKLILVLNKSDLVPKENLENWLNYLNKELPTVVFKASTNLKNRKTFKIKKKKVVPFQSKICCGKEALWKLLGDFQQSCGKDIQVGVIGFPNVGKSSVINSLKQEWICNVGISMGLTRSMQIVPLDKQITIIDSPCLIISPCNSPTALALRSPASIEELRPLEAASAILSQADNEQVVLKYTVPEYKDSLHFFTKLAQRRGLHQKGGSPNVESAAKLVWSEWTGASLGYYCHPPASWNHSLHFNENIAAVMKKGFNLEELEKNNAHSIQVLKGPHLTNRILFRSSGLTNGILDEKDIVEESPRQTEDKQDADDQENGSGERNAEISDVAPVEETRELSPEQSTAGKPSDGSSALDRASQEDETYDFTTDYI

target: T1, biotin-tagged XPF (mouse (endogenous knock-in in MEFs)); experiment: affinity purification with mass spectrometry

Row | Binder | binding
1 | B1 | binds
2 | B2 | binds
3 | B3 | binds
4 | B4 | binds
5 | B5 | binds
6 | B6 | binds
